Reference: PubChem BioAssay AID2685 (National Center for Advancing Translational Sciences (NCATS), 2010)
This is one part of the list. The main result of the screen is listed elsewhere. These columns were measured beside it and carry no call. The list favours compounds with an active or inconclusive main result. Potencies come from curve fits of mixed quality, noted in brackets.

Assay: qHTS Assay for Lipid Storage Modulators in Drosophila S3 Cells;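 for cell number change: cells counted by Cell Tracker Red CMTPX staining in the red channel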
Conditions: BODIPY lipid droplet fluorescence, 18-24 h; for cell number change: measured here: cell count max response, cells fed with added oleic acid
In short: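 Drosophila S3 cells loaded with oleic acid (400 uM, as added) and compounds at several concentrations; lipid droplets imaged by 488-nm laser-scanning cytometry, 500–530 nm intensity and object ratio to cell channel. Percent activity normalized to 20 uM Triacsin C.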

[1] = measured here: cell number channel AC50, cells fed with added oleic acid
[2] = measured here: lipid fluorescence (Fed channel) AC50, cells fed with added oleic acid

Row | Compound | cell number change [%] | AC50 [1] | AC50 [2]
1 | Cc1ccc(/C(O)=C2/C(=O)C(=O)N(Cc3cccnc3)C2c2ccccn2)cc1 (stereo not drawn) | -214 | 23.1 µM [falling, partial curve] | 0.82 µM [falling, full curve]
2 | O=c1c2oc3ccccc3c2ncn1Cc1ccc(F)cc1 | 7.83 | – | 0.146 µM [rising, full curve, poor fit]
3 | CC(=O)c1c(C)oc(C)c1CSCc1ccc(C(=O)O)o1 | 3.34 | – | 3.66 µM [falling, full curve]
4 | COc1ccc(NC(=O)Cn2c(=O)oc3cc(S(=O)(=O)N4CCCC4)ccc32)c(OC)c1 | 11.7 | – | 29.1 µM [rising, partial curve, poor fit]
5 | CC(C)c1ccc(C(=O)NN2C(=O)C3CCCCC3C2=O)cc1 (stereo not drawn) | 27.1 | – | 16.4 µM [rising, single point]
6 | COCCn1c(SCC(=O)NC2CC2)nc2ccccc21 | -0.478 | – | 18.4 µM [rising, single point]
7 | CC(C)(C)c1ccc(C(=O)Nc2cccc3ncccc23)cc1 | – | – | 5.17 µM [falling, single point]
8 | Cc1noc(NS(=O)(=O)c2ccc(NC(=O)c3ccc(N(C)C)cc3)cc2)c1C | -32.5 | 25.9 µM [falling, single point] | 2.59 µM [falling, single point]
9 | Cc1c(-c2nc(N)nc(Nc3ccc(F)cc3)n2)oc2ccccc12 | -69.5 | 18.4 µM [falling, single point] | 0.461 µM [rising, partial curve]
10 | CCOc1ccc(-c2nc(S(=O)(=O)c3ccccc3)c(N3CCC(C(N)=O)CC3)o2)cc1 | 14.3 | – | 0.103 µM [rising, full curve, poor fit]
11 | Cc1c(N(C)C(=O)C2CCCN2S(=O)(=O)c2ccccc2)c(=O)n(-c2ccccc2)n1C (stereo not drawn) | 1.33 | – | 4.11 µM [falling, partial curve, poor fit]
12 | Cn1cccc1/C=N/NC(=O)c1sc2ccccc2c1Cl | -1.04 | – | –
13 | O=C(c1ccc2c(c1)OCO2)N1CCN(c2ccc(C(F)(F)F)cn2)CC1 | 89.9 | 16.4 µM [rising, partial curve] | 14.6 µM [rising, partial curve]
14 | Cc1ccc(S(=O)(=O)c2nc(-c3ccco3)oc2N2CCC(C)CC2)cc1 | -15 | – | –
15 | COc1ccc(C(=O)N/N=C(\C)c2cccc(NC(=O)c3ccc(F)cc3)c2)c(OC)c1 | 3.4 | 6.51 µM [rising, single point] | –
16 | CCOC(=O)C1(CC)NC(c2ccc(OC)c(OC)c2)C2C(=O)N(c3cccc(C(C)=O)c3)C(=O)C21 (stereo not drawn) | -6.88 | – | 0.103 µM [rising, full curve, poor fit]
17 | CCCCC(=O)Nc1ccccc1N1CCN(c2ccc(F)cc2)CC1 | 0.525 | – | 29.1 µM [falling, single point]
18 | Cn1c(SCC(=O)NCc2ccc3c(c2)OCO3)ncc(C(=O)Nc2ccc(F)cc2)c1=O | 23 | – | –
19 | CCOc1ccc(OCC)c(NC(=O)C2CCCN(S(=O)(=O)c3c(C)noc3C)C2)c1 (stereo not drawn) | 19.6 | – | –
20 | O=C1OCC(Cn2c3ccccc3c3ccccc32)O1 (stereo not drawn) | 0.749 | – | –

Row | Compound | cell number change [%] | AC50 [1] | AC50 [2]
21 | Cc1ccc(C2NC(=O)CCC2[N+](=O)[O-])cc1 (stereo not drawn) | 1.09 | – | 0.058 µM [falling, full curve, poor fit]
22 | CSc1nc2ccc(NS(=O)(=O)c3ccc4c(c3)OCCO4)cc2s1 | 32.2 | 5.8 µM [rising, full curve, poor fit] | 23.1 µM [rising, partial curve]
23 | CCOCC(=O)Nc1cc(C(=O)OC)ccc1C(=O)OC | -11.4 | – | 0.651 µM [rising, single point]
24 | COc1ccc(NC2CCCN(C(=O)c3cn(C)c4ccccc34)C2)cc1 (stereo not drawn) | 16.8 | – | 25.9 µM [rising, partial curve]
25 | O=[N+]([O-])c1cc(C2Nc3cccc4cccc(c34)N2)ccc1Cl | -43.6 | 11.6 µM [falling, partial curve] | 6.51 µM [falling, full curve, poor fit]
26 | CC(=O)Nc1ccc(C(=O)CN2C(=O)NC3(CCOc4ccccc43)C2=O)c(F)c1 (stereo not drawn) | 8.33 | – | 1.84 µM [rising, partial curve, poor fit]
27 | N#Cc1cnn2c(-c3ccccc3)ccnc12 | 2.42 | – | 29.1 µM [rising, single point]
28 | Cc1csc(SCC(=O)NC(=O)NCc2ccccc2)n1 | 4.53 | – | 6.51 µM [rising, single point]
29 | CCC(=O)Nc1ccc(C(=O)OCc2ccccc2)cc1 | 27.8 | 5.17 µM [rising, full curve, poor fit] | 4.61 µM [rising, single point]
30 | COc1cccc(C(=O)Nc2ccc(N3CCN(C(=O)c4ccco4)CC3)cc2)c1 | -4.62 | – | 6.51 µM [rising, single point]
31 | COc1ccc(C(CNC(=O)c2cccc(S(=O)(=O)Nc3ccccc3Cl)c2)N2CCOCC2)cc1 (stereo not drawn) | 50 | 2.06 µM [rising, partial curve] | –
32 | O=C(c1ccc2c(=O)n(Cc3ccc(Cl)cc3)c(=S)[nH]c2c1)N1CCOCC1 | 13 | – | –
33 | Cc1ccc(S(=O)(=O)N2CCN(C(=O)c3ccccc3)CC2)c(C)c1NS(C)(=O)=O | -19.2 | – | 18.4 µM [falling, single point]
34 | CCCCOCCCNC(=S)Nc1ccc(S(=O)(=O)N2CCOCC2)cc1 | -21.7 | – | 0.206 µM [rising, full curve, poor fit]
35 | COc1ccc(NC2CCCN(C(=O)CCn3cccn3)C2)cc1 (stereo not drawn) | 12.6 | – | 6.51 µM [falling, single point]
36 | CCOc1ccc(NC(=S)N2CCCN(Cc3cccc(Cl)c3)C2)cc1 | – | 0.00461 µM [falling, full curve, poor fit] | 0.00461 µM [falling, full curve, poor fit]
37 | Cc1ccc(OCCCCN2CCCCC2)c(Br)c1 | 19.8 | – | –
38 | COc1ccc(OC)c(NC(=O)c2ccc(-c3csc(C)n3)cc2)c1 | -5.87 | – | 16.4 µM [falling, single point]
39 | COc1ccc(OCCn2cc(/C=N/NC(=O)c3ccncc3)c3ccccc32)cc1 | -0.706 | – | 1.3 µM [rising, full curve]
40 | CCOC(=O)COc1cccc2c(=O)n(CC(=O)N3CCCc4ccccc43)ccc12 | 6.45 | 0.731 µM [falling, full curve, poor fit] | 1.03 µM [falling, full curve]

Row | Compound | cell number change [%] | AC50 [1] | AC50 [2]
41 | CC1CCCN(c2sc(S(C)(=O)=O)nc2S(=O)(=O)c2ccc(Cl)cc2)C1 (stereo not drawn) | -53.6 | 29.1 µM [falling, single point] | 29.1 µM [falling, single point]
42 | Clc1c(CSc2nc3ccccc3o2)nc2ccccn12 | -7.79 | 0.731 µM [rising, full curve, poor fit] | 2.59 µM [rising, partial curve]
43 | COC(=O)c1c(NC(=O)C2=COCCO2)sc(C)c1C | 36.5 | 29.1 µM [rising, single point] | –
44 | CCC(C(=O)N1CCCCCC1)n1nc(C)n2c(cc3occc32)c1=O (stereo not drawn) | 7.25 | – | –
45 | COc1ccc(CCC(C)N2CCc3ccccc3C2)cc1 (stereo not drawn) | 12.7 | – | 3.66 µM [rising, full curve]
46 | Cc1cccn2c(=O)c3cc(C(=O)NC4CCCCCC4)sc3nc12 | -8.82 | – | 0.291 µM [falling, full curve, poor fit]
47 | COc1ccc(-c2ccc(SCC(=O)N3CC(=O)Nc4ccccc43)nn2)cc1 | 20.4 | – | 29.1 µM [falling, single point]
48 | CSCCC(NC(=O)c1ccco1)C(=O)Nc1cc(C)ccn1 (stereo not drawn) | – | – | 0.0731 µM [falling, full curve, poor fit]
49 | COCCCNc1oc(/C=C/c2ccccc2)nc1C#N | – | 0.231 µM [rising, full curve, poor fit] | 29.1 µM [rising, single point]
50 | Cc1c(C)c2cc(Cl)c(O)c(CN3CCN(C)CC3)c2oc1=O | 5.49 | – | 0.651 µM [falling, single point]
51 | C=CCn1cc(-c2cccc(C(F)(F)F)c2)cc(C#N)c1=O | -7.56 | – | –
52 | N/C(CC(=O)NCCOc1ccccc1)=N\O | 8.79 | – | 6.51 µM [falling, single point]
53 | COc1ccc(CNC(=O)C2CCNCC2)cc1 | -26.2 | – | –
54 | N#Cc1ccccc1Cn1c(=O)oc2ccccc21 | -12.4 | – | 0.00517 µM [falling, full curve, poor fit]
55 | CC(=O)c1cccc(S(=O)(=O)N2CCN(CCOc3ccccc3)CC2)c1 | 1.03 | – | 1.03 µM [falling, partial curve]
56 | Cc1ccc(N(Cc2ccco2)C(=O)c2ccc(N3CCCCC3)c([N+](=O)[O-])c2)cc1 | -18 | – | 29.1 µM [falling, single point]
57 | S=c1[nH]nc(/C=C/c2ccccc2)o1 | 9.18 | 0.651 µM [falling, partial curve] | 0.58 µM [falling, partial curve]
58 | O=C(NNc1nc(-c2ccccc2)cs1)c1cccs1 | -14.8 | – | 0.206 µM [falling, single point]
59 | COc1ccc(C(O)c2nccn2C)cc1 (stereo not drawn) | -45.9 | 13 µM [falling, partial curve] | 3.66 µM [falling, full curve]

Among those listed so far, these have a CF3 group.
Row | Compound | cell number change [%] | AC50 [1] | AC50 [2]
13 | O=C(c1ccc2c(c1)OCO2)N1CCN(c2ccc(C(F)(F)F)cn2)CC1 | 89.9 | 16.4 µM [rising, partial curve] | 14.6 µM [rising, partial curve]
51 | C=CCn1cc(-c2cccc(C(F)(F)F)c2)cc(C#N)c1=O | -7.56 | – | –
